According to patent US20070269832A1, “Novel affinity labels” (priority 2001, published 2007):
Some entries share one result that the patent states for a list of compounds. Some compounds share one range, which may span the group rather than tell each member.

Columns and labels:
[1] = system: HL-60 cells; experiment: Dual labeling of CPT-treated HL-60 cells with SR-VAD-FMK and FFCK or FLCK (fluorescence microscopy / LSC); format: cell-based, Human; conditions: induced cells treated simultaneously with SR-VAD-FMK and FFCK (or FLCK)
Description: Cell staining and fluorescence measurement by LSC: The HL-60 cells from the untreated or CPT treated cultures were centrifuged (200 g, 5 min) and resuspended in PBS at approximately 10^4 cells per 5 ml volume. Cells were then attached electrostatically to microscope slides as described before (Bedner et al., Exp Cell Res., 2000, 259:308-313; Smolewski et al., Cytometry, 2001, 44:73-82). Briefly, the attachment was achieved by the incubation (15 min) of cells suspended in serum-free PBS in shallow (<1 mm depth; 1.5×1.5 cm) wells on horizontally placed microscope slides that were rinsed in 100% ethanol and air dried prior to use, at 100% humidity. The electrostatically attached cells remain viable, exclude such dyes as trypan blue and propidium iodide (PI), and have unchanged morphology for several hours (Bedner et al., Exp Cell Res., 2000, 259:308-313). After the cells became attached, PBS was removed from the wells and was replaced by 150 μL of the culture medium containing 10% FCS. FLISP staining solutions were prepared by diluting 5 μL of the 10 mM FFCK or FLCK stock solution into 5 mL of culture medium yielding a final FLISP concentration 10 μM. The medium from above the cells on the slide was then replaced with 150 μL of this staining solution. A polyethylene foil (2.5×2.5 cm) was positioned over the staining solution to prevent drying. The slides were subsequently incubated for 1 h at 37° C. in a closed box with wet tissue to additionally prevent drying. […] The slides were placed on the motorized stage of a laser scanning microscope (LSC; Kamentsky, L. A., Methods Cell Biol, 2001, 63:51-87; Darzynkiewicz et al., Exp Cell Res, 1999, 249:1-12) for fluorescence measurement. Cell fluorescence was then measured using a 488 nm excitation laser line and recording integral and maximal pixel intensities of green FFCK or FLCK. FLICA staining was measured under the same conditions as FLISP staining. Fluorescence can also be measured by flow cytometer and fluorescence microscopy. […]

[2] = system: HL-60 cells; experiment: Labeling of untreated and CPT-treated HL-60 cells with FLISP (FFCK, FLCK) or FLICA reagents, fluorescence measured by LSC; format: cell-based, Human; conditions: HL-60 after 3 h of treatment with CPT, repeated experiments
Description: Preparation of Reagents: Fluorescent Inhibitors of Serine Proteases (FLISP) reagents, 5(6)-Carboxyfluoresceinyl-L-phenylalanylchloromethyl ketone (FFCK) and 5(6)-carboxyfluoresceinyl-L-leucylchloromethyl ketone (FLCK) were dissolved initially in dimethyl sulfoxide (DMSO; Sigma) to yield a 10 mM concentration. Aliquots were made from this stock solution and stored frozen at −20° C. protected from light. This reagent stock was then diluted directly into the cell culture media to give a 1× working reagent concentration of 10 μM. Dilution of the reagent into aqueous (cell culture) media is done just prior to cell exposure to preserve the labile chloromethyl ketone reactivity of FLISP reagent.
Fluorescent inhibitors of caspases (FLICA) reagents, namely the fluorescein labeled VAD-FMK (FAM-VAD-FMK) and sulforhodamine labeled VAD-FMK (SR-VAD-FMK) (Immunochemistry Technologies; Bloomington, Minn.) were both designed to detect the presence of active caspases within apoptotic cells. These inhibitors were dissolved in DMSO to obtain a 150× concentrated stock solution. Aliquots of these solutions were stored at −20 °C in the dark. Prior to use, a 30× working solution of either FAM-VAD-FMK or SR-VAD-FMK was prepared by diluting the stock solution 1:5 in phosphate buffered saline (PBS) and mixing until the solution become clear. The 30× working solution was diluted 1:30 cell culture media to give a final 1× working reagent concentration of 10 μM.
Cells: Human promyelocytic leukemic HL-60 cells were obtained from American Type Culture Collection (ATCC; Rockville, Md.). They were cultured in 25 mL FALCON flasks (Becton Dickinson Co., Franklin Lakes, N.J.) using RPMI 1640 supplemented with 10% fetal calf serum, 100 units/mL penicillin,100 mg/mL streptomycin and 2 mM L-glutamine (all from Gibco/BRL Life Technologies, Inc., Grand Island, N.Y.) in a humidified incubator set to maintain 37.5° C. and 5% CO2 as previously described (Bedner et al., Exp Cell Res., 2000, 259:308-313; Smolewski et al., Cytometry, 2001, 44:73-82). At the onset of experiments, there were fewer than 5×10^5 cells per/mL in cultures and the cells were at an exponential and asynchronous growth phase. To induce apoptosis the cells were treated with 0.15 μM DNA topoisomerase I inhibitor camptothecin (CPT; Sigma Chemical Co., St. Louis, Mo.) for 3 hours.
Cell staining and fluorescence measurement by LSC: The HL-60 cells from the untreated or CPT treated cultures were centrifuged (200 g, 5 min) and resuspended in PBS at approximately 10^4 cells per 5 ml volume. Cells were then attached electrostatically to microscope slides as described before (Bedner et al., Exp Cell Res., 2000, 259:308-313; Smolewski et al., Cytometry, 2001, 44:73-82). […]

Substance	cells with unchanged morphology that were labeled [1] [%]	fraction of cells labeled with the ligand [2]
5(6)-Carboxyfluoresceinyl-L-phenylalanylchloromethyl ketone [FFCK]	< 10	35-45%
5(6)-Carboxyfluoresceinyl-L-valylalanylaspartylflyoromethyl ketone [FAM-VAD-FMK, reference compound]	–	35-45%
5(6)-carboxyfluoresceinyl-L-leucylchloromethyl ketone [FLCK]	< 10	35-45%
Sulforhodaminyl-L-valylalanylaspartylflyoromethyl ketone [SR-VAD-FMK, reference compound]	< 10	35-45%
